Data as given in PubChem BioAssay AID1259425 (University of Nebraska Medical Center, 2018).

Test: 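Find knockdowns that reproduce the gene expression pattern seen when KSR1 is lost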 (primary screen)
System: HCT116 human colon cancer cells
Knock-down reagent: siRNA pool against human genes, 50 nM siRNA
Read-out: 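mRNA of six signature genes measured together by branched-DNA assay after 50 nM siRNA pool, blank removed, divided by geometric mean of two housekeeping genes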
Scale: BNIP3L mRNA: higher = more BNIP3L transcript after knockdown; NDRG1 mRNA: higher = more NDRG1 transcript after knockdown
In all, the deposit lists about 14,000 reagents; this is a part drawn at random. Not all columns of the deposit are shown. The record does not give: the time to read-out.

HCFC1
- BNIP3L mRNA, set 1: 0.049
- NDRG1 mRNA, set 1: 0.0471

KIF2A
- BNIP3L mRNA, set 1: 0.156
- NDRG1 mRNA, set 1: 0.136

DOCK6
- BNIP3L mRNA, set 1: 0.06
- NDRG1 mRNA, set 1: 0.201

TMEM260
- BNIP3L mRNA, set 1: 0.0835
- NDRG1 mRNA, set 1: 0.118

2 consecutive entries from above, quoted:
HCFC1
- BNIP3L mRNA, set 1: 0.049
- NDRG1 mRNA, set 1: 0.0471

KIF2A
- BNIP3L mRNA, set 1: 0.156
- NDRG1 mRNA, set 1: 0.136

Continued.
DLC1
- BNIP3L mRNA, set 1: 0.125
- NDRG1 mRNA, set 1: 0.199

MYCN
- BNIP3L mRNA, set 1: 0.0978
- NDRG1 mRNA, set 1: 0.169

LY6G6D
- BNIP3L mRNA, set 1: 0.243
- NDRG1 mRNA, set 1: 0.367

NSG2
- BNIP3L mRNA, set 1: 0.0848
- NDRG1 mRNA, set 1: 0.279

ARFGAP2
- BNIP3L mRNA, set 1: 0.115
- NDRG1 mRNA, set 1: 0.0949

TWF2
- BNIP3L mRNA, set 1: 0.0717
- NDRG1 mRNA, set 1: 0.206

FUT3
- BNIP3L mRNA, set 1: 0.162
- NDRG1 mRNA, set 1: 0.135

STK17A
- BNIP3L mRNA, set 1: 0.0872
- NDRG1 mRNA, set 1: 0.0889
